Laboratory results as given in the supplement of paper PMC10849652.
The other results are listed elsewhere or left out.

The chains behind the UniProt entries cited, without tags or fusion partners. Where a name states a change or a piece, a line headed by the entry shows the natural chain unless it says otherwise.
UniProt Q8TE73: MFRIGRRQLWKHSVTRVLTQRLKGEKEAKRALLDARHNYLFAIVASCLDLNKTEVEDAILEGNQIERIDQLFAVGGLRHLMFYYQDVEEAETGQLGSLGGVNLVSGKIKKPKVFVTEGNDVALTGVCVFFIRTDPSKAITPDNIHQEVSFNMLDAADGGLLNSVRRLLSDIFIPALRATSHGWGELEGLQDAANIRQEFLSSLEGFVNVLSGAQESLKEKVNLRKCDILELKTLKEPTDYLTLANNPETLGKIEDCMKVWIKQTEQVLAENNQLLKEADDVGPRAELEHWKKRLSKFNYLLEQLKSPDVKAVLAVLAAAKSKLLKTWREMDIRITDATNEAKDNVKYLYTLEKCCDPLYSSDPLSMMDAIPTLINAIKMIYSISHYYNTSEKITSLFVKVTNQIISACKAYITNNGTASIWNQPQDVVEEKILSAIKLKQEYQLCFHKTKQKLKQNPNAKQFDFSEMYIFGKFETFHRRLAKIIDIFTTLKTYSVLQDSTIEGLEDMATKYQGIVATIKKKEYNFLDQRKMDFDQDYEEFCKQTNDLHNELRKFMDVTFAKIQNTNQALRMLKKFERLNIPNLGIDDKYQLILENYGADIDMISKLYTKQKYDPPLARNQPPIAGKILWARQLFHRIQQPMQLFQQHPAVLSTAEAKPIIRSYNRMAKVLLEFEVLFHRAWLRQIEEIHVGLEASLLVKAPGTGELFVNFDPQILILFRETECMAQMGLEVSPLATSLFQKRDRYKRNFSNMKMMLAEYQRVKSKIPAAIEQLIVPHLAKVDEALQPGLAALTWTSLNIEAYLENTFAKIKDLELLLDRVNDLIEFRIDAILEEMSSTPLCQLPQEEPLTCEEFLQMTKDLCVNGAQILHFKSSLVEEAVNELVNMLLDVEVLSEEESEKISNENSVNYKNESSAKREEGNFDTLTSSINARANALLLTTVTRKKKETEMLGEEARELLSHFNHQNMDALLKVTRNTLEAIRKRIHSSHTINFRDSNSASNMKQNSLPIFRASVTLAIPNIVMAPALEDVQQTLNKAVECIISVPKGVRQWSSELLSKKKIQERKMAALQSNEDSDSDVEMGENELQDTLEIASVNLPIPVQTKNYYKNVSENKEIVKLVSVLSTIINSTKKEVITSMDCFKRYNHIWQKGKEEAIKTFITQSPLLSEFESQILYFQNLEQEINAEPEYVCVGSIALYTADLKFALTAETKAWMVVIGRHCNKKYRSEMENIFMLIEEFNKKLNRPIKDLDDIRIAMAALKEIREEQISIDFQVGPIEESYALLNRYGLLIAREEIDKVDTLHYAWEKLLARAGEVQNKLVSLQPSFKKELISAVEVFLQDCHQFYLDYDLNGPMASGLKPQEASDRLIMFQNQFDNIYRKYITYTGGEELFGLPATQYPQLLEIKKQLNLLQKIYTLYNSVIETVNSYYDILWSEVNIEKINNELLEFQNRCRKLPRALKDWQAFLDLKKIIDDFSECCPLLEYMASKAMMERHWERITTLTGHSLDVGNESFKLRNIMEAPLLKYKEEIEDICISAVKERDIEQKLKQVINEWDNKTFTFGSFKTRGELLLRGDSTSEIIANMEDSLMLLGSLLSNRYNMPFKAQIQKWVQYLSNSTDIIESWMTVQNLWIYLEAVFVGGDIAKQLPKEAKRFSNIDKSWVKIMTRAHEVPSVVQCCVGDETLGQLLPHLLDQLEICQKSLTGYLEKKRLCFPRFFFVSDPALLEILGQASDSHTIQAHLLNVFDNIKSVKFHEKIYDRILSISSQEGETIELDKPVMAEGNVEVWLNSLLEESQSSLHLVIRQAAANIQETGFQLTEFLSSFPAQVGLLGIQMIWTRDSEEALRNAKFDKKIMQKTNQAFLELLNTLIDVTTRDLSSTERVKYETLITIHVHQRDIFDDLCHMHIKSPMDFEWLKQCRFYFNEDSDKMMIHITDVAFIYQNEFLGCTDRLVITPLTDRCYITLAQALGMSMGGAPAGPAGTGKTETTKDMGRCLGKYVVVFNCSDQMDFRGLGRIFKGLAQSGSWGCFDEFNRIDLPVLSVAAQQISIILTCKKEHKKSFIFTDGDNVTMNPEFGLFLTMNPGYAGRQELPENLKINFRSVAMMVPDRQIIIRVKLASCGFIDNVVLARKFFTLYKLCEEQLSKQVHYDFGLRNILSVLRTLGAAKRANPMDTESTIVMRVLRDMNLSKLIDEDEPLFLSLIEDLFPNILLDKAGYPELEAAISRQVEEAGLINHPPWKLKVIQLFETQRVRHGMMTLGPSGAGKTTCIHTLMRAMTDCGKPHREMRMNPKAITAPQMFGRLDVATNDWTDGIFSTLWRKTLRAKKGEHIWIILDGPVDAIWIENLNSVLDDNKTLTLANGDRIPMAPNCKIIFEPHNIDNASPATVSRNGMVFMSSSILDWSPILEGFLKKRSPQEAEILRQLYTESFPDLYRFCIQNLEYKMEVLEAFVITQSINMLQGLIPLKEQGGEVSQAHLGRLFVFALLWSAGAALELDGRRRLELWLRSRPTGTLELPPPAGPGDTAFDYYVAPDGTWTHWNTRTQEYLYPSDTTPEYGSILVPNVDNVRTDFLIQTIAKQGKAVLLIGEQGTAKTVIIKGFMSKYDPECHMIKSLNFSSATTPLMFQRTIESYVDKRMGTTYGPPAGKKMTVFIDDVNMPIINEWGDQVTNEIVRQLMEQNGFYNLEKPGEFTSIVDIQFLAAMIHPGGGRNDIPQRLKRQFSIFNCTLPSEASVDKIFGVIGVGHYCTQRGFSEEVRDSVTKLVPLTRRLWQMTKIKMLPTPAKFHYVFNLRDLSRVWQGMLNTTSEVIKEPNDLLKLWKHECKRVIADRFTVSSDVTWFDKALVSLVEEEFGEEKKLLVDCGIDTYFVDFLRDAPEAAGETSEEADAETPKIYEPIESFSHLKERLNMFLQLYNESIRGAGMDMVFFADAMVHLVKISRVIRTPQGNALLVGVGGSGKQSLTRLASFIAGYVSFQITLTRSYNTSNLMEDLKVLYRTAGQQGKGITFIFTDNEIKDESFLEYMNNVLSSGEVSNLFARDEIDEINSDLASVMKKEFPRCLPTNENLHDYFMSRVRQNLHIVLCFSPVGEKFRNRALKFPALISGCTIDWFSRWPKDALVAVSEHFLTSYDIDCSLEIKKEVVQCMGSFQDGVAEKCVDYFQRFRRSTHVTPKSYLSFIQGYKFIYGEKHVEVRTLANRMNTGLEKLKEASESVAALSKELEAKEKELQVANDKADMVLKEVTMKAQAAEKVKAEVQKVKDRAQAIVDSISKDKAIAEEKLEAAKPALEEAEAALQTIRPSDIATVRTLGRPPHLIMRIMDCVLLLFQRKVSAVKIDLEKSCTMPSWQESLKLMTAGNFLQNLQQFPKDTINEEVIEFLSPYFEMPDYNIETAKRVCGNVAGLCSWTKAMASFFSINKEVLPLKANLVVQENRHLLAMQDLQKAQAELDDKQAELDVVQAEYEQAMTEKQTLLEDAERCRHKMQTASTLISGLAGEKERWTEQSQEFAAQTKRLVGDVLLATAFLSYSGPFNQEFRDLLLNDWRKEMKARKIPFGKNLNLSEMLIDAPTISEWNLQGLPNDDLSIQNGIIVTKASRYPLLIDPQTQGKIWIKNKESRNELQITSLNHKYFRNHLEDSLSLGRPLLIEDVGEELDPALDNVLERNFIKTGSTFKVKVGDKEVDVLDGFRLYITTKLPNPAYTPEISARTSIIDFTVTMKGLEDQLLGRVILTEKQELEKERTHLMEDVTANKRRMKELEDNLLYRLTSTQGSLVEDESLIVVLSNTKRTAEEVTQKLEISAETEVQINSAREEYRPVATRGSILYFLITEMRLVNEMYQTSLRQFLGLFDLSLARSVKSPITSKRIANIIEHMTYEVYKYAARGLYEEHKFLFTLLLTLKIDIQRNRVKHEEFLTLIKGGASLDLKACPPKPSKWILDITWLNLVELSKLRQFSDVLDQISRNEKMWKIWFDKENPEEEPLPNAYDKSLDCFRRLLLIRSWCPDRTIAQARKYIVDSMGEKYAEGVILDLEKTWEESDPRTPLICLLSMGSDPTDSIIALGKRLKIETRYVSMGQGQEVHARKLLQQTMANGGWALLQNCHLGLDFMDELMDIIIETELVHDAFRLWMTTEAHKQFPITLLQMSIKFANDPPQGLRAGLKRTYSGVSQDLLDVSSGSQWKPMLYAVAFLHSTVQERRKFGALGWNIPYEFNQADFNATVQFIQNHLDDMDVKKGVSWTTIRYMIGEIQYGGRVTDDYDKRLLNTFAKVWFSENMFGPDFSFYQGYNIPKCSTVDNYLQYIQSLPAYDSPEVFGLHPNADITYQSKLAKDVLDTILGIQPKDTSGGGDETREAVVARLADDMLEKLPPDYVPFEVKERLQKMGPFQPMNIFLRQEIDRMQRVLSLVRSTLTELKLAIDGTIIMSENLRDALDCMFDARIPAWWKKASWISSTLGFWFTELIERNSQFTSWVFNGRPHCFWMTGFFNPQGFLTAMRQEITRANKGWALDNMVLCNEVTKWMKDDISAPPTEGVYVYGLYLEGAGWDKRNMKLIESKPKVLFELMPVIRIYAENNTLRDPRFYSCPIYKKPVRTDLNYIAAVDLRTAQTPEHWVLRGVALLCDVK
UniProt Q6XZF7: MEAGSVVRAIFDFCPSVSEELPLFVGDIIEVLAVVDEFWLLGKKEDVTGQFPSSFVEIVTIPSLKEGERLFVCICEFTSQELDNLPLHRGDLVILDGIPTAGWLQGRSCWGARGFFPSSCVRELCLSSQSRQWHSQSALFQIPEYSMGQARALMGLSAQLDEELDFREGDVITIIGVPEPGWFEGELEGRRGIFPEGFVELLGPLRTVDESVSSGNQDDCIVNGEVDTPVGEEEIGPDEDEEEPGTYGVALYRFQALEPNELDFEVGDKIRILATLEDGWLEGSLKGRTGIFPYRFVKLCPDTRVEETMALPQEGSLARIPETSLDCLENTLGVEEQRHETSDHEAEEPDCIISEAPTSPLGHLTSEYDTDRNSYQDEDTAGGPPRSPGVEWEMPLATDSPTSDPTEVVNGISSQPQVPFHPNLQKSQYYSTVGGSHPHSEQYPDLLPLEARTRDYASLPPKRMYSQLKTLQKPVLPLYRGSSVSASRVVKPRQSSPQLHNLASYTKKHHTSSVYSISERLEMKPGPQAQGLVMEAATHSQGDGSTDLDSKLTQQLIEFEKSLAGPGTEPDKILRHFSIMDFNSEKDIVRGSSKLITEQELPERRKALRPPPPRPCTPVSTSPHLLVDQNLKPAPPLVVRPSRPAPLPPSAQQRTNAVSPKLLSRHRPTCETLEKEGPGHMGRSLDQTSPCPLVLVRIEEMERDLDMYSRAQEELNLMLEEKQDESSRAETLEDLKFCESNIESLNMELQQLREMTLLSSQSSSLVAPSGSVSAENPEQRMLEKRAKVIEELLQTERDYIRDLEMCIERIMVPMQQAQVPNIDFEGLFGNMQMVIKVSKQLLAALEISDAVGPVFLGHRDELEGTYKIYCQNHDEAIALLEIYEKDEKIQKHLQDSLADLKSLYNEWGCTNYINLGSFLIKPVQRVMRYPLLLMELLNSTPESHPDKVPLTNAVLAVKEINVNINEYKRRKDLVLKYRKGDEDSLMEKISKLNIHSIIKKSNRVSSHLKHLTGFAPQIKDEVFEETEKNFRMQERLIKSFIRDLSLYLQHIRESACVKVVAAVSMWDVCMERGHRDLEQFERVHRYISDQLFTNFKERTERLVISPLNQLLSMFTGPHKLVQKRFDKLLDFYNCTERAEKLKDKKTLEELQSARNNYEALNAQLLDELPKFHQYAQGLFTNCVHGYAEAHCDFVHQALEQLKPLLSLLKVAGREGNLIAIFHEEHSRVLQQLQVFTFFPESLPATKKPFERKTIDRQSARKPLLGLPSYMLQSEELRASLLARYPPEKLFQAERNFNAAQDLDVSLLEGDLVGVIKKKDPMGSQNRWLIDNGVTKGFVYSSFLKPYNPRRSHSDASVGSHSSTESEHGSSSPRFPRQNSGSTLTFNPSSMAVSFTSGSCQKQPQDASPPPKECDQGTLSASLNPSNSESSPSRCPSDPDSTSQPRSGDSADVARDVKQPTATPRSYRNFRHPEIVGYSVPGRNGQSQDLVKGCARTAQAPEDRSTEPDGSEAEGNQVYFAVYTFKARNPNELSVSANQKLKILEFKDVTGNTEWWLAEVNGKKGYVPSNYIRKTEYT

How the values were obtained:
Experiment in all cases: log2 fold change, soluble protein after heating vs DMSO (PISA); higher = thermal stabilisation; K562 lysate, 10 uM; active = over 0.2 and 3.5 SD of the protein, either way, in both replicates (recomputed)
[1] = compound: C1=CC=C(C=C1)[C@H](COC2=CC3=C(C=C2)NC(=O)N3)NC(=O)C4=CC=CN(C4=O)CC5=CC(=C(C=C5)F)F
Summary of the method: (§1)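 Pellets of K562 cells were dounce-homogenised in PBS pH 7.4 with 1 mM MgCl2, and the crude extract was held at 1 mg/mL protein for a 30 min treatment with 10 μM compound. Aliquots were heated for 3 min over 48°C-58°C and pooled before NP-40 was added to 0.5% at 4°C. The supernatant from 21,000xg for 90 min was quantified by TMTpro 16plex LC-MS/MS with channel sums equalised. Values are reported from duplicates as log-two fold change in thermal stability relative to solvent controls.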

[2] = compound: CC1=C(SC2=C1C(=N[C@H](C3=NN=C(N32)C)CC(=O)N)C4=CC=C(C=C4)Cl)C
Summary of the method: as §1

[3] = compound: CC1=C2C(=CC=C1)N=C(N(C2=O)C3=CC=CC=C3C)CN4C=NC5=C(N=CN=C54)N
Summary of the method: as §1

[4] = compound: Cc1sc2c(c1C)C(c1ccc(Cl)cc1)=N[C@@H](CC(=O)OC(C)(C)C)c1nnc(C)n1-2
Summary of the method: as §1

[5] = compound: c1ccc([C@@H]2C[C@H]2NC2CCNCC2)cc1
Summary of the method: as §1

Measured: log2 fold change

DNAH5 (UniProt Q8TE73)
inactive: [1] -0.019 | [2] 0.018 | [3] 0.007 | [4] -0.087 | [5] -0.216

DMD isoform 14 (UniProt P11532)
inactive: [1] 0.027 | [2] 0.102 | [4] -0.007 | [5] 0.231

DMTF1 (UniProt Q9Y222)
inactive: [1] 0.081 | [2] -0.059 | [3] 0.134 | [4] 0.147 | [5] -0.075

DNAH8 (UniProt Q96JB1)
inactive: [1] -0.036 | [2] 0.131 | [3] 0.092 | [4] -0.174 | [5] -0.053

DNMBP (UniProt Q6XZF7)
inactive: [1] 0.023 | [2] 0.003 | [3] -0.013 | [4] -0.024 | [5] -0.034

DONSON (UniProt Q9NYP3)
inactive: [1] -0.043 | [2] 0.068 | [4] 0.013 | [5] -0.243

DMXL2 isoform 3 (UniProt Q8TDJ6)
inactive: [1] 0.018 | [2] -0.08 | [3] 0.055 | [4] 0.092 | [5] 0.033

DNPEP (UniProt C9JBE1)
inactive: [1] -0.054 | [2] 0.018 | [3] -0.17 | [5] -0.16

DNAJC1 (UniProt Q96KC8)
inactive: [1] -0.113 | [2] -0.021 | [3] 0.039 | [4] -0.011 | [5] 0.021
